Data published in PubChem BioAssay AID248 (DTP/NCI, 2004).
The list shows only some results of the screen, not a fair sample: it gathers tests that were run many times, whatever their T/C, doses with no T/C, and many T/C values between a quarter and a half above the control. Other doses and runs of a compound stand elsewhere. T/C is the treated group as % of the vehicle group. Some entries give survivors of the animals treated and no T/C: the source files T/C as zero there, which appears to mark a toxic dose or a test without result, not a measured value. Some survivor counts are full or nearly so, which does not show that the dose was tolerated: survival well below the control is almost never listed, so the zero probably covers shortened survival too. Counts of survivors are from the toxicity check (mostly the fifth day) where no day follows; animals may have died later. Schedule codes are those of the source, taken here to give the interval after Q, in days (D) or hours (H), and the number of doses after X. Some entries hold several experiments; the results are listed from low to high. Where survival is the endpoint, the PubChem record calls one and a half times the control and up active, and a quarter to a half above the control has no call in these data; cut-offs in other NCI protocols can differ.

Test system: L1210 leukemia ip in BDF1 mice, survival T/C
Assay: NCI In Vivo Anticancer Drug Screen. Data for tumor model L1210 Leukemia (intraperitoneal) in B6D2F1 (BDF1) mice
Settings: T/C endpoint: mean survival time, higher T/C = longer survival
[1] = dose: 200.0 mg/kg/injection, schedule: Q01DX009 (ip), vehicle: Klucel (hydroxypropylcellulose) (HPC)
[2] = dose: 400.0 mg/kg/injection, schedule: Q01DX009 (ip), vehicle: Klucel (hydroxypropylcellulose) (HPC)
[3] = dose: 200.0 mg/kg/injection, schedule: Q01DX001 (ip), vehicle: carboxymethylcellulose (CMC)
[4] = dose: 400.0 mg/kg/injection, schedule: Q01DX001 (ip), vehicle: carboxymethylcellulose (CMC)
[5] = dose: 400.0 mg/kg/injection, schedule: Q01DX009 (ip), vehicle: saline
[6] = dose: 50.0 mg/kg/injection, schedule: Q01DX009 (ip), vehicle: Klucel (hydroxypropylcellulose) (HPC)
[7] = dose: 100.0 mg/kg/injection, schedule: Q01DX009 (ip), vehicle: Klucel (hydroxypropylcellulose) (HPC)
[8] = dose: 400.0 mg/kg/injection, schedule: Q04DX002 (ip), vehicle: Klucel (hydroxypropylcellulose) (HPC)
[9] = dose: 400.0 mg/kg/injection, schedule: Q01DX009 (ip), vehicle: saline with Tween-80
[10] = dose: 100.0 mg/kg/injection, schedule: Q01DX009 (ip), vehicle: saline with Tween-80
[11] = dose: 100.0 mg/kg/injection, schedule: Q04DX003 (ip), vehicle: Klucel (hydroxypropylcellulose) (HPC)
[12] = dose: 200.0 mg/kg/injection, schedule: Q04DX003 (ip), vehicle: Klucel (hydroxypropylcellulose) (HPC)
[13] = dose: 400.0 mg/kg/injection, schedule: Q04DX003 (ip), vehicle: Klucel (hydroxypropylcellulose) (HPC)
[14] = dose: 400.0 mg/kg/injection, schedule: Q04DX002 (ip), vehicle: saline with Tween-80
[15] = dose: 200.0 mg/kg/injection, schedule: Q04DX002 (ip), vehicle: saline with Tween-80
[16] = dose: 100.0 mg/kg/injection, schedule: Q04DX002 (ip), vehicle: saline with Tween-80
[17] = dose: 400.0 mg/kg/injection, schedule: Q01DX001 (ip), vehicle: saline with Tween-80
[18] = dose: 400.0 mg/kg/injection, schedule: Q01DX001 (ip), vehicle: saline

Oc1ccccc1C=NCCN1CC1.Oc1ccccc1C=NCCN1CC1.[Cu]
survivor count (dose: 100.0 mg/kg/injection, schedule: Q01DX001 (ip), vehicle: Klucel (hydroxypropylcellulose) (HPC)): 0 of 6 | survivor count (dose: 200.0 mg/kg/injection, schedule: Q01DX001 (ip), vehicle: Klucel (hydroxypropylcellulose) (HPC)): 0 of 6 | survivor count (dose: 400.0 mg/kg/injection, schedule: Q01DX001 (ip), vehicle: Klucel (hydroxypropylcellulose) (HPC)): 0 of 6

O=C(Nc1ccccn1)Nc1cc(C(F)(F)F)ccc1Cl
survivor count [1]: 3 of 3 | survivor count [2]: 3 of 3

CC1(C)CCC(=NNC(N)=S)CC1
survivor count (dose: 80.0 mg/kg/injection, schedule: Q01DX001 (ip), vehicle: carboxymethylcellulose (CMC)): 0 of 4 | survivor count (dose: 100.0 mg/kg/injection, schedule: Q01DX001 (ip), vehicle: carboxymethylcellulose (CMC)): 0 of 4 | survivor count [3]: 0 of 4 | survivor count [4]: 0 of 4

CCC(C)(O)C#CC(C)(O)CC (centres undefined)
survivor count [5]: 0 of 6

CCCNC(=O)Sc1ccc(Cl)cc1
survivor count [6]: 3 of 6 | survivor count [7]: 0 of 3 | survivor count (dose: 100.0 mg/kg/injection, schedule: Q04DX002 (ip), vehicle: Klucel (hydroxypropylcellulose) (HPC)): 6 of 6 | survivor count [1]: 0 of 3 | survivor count [2]: 0 of 3 | survivor count [8]: 0 of 6 and 1 of 3

CNc1ccc(C(=O)C2CC2)cc1
survivor count [9]: 1 of 6

CC[Si](C)(C)c1ccc(CCN2CC2)s1
survivor count [3]: 0 of 4 | survivor count [4]: 0 of 4

N#CCCC[P+](c1ccccc1)(c1ccccc1)c1ccccc1
survivor count (dose: 150.0 mg/kg/injection, schedule: Q01DX001 (ip), vehicle: other): 1 of 6 | survivor count (dose: 200.0 mg/kg/injection, schedule: Q04DX002 (ip), vehicle: Klucel (hydroxypropylcellulose) (HPC)): 0 of 3 | survivor count (dose: 300.0 mg/kg/injection, schedule: Q01DX001 (ip), vehicle: other): 0 of 6 | survivor count [8]: 0 of 3

N=C([Se])c1ncn(C2OC(CO)C(O)C2O)c1N (centres undefined)
survivor count (dose: 100.0 mg/kg/injection, schedule: Q01DX005 (ip), vehicle: saline): 0 of 6 | survivor count (dose: 200.0 mg/kg/injection, schedule: Q01DX005 (ip), vehicle: saline): 0 of 6

O=C(OCCCl)OCCCl
survivor count [10]: 5 of 6

C1CCC2C(C1)C2(N1CCCC1)N1CCCC1 (centres undefined)
survivor count [6]: 5 of 6 | survivor count [7]: 0 of 6 | survivor count [11]: 4 of 6 | survivor count [12]: 0 of 6 | survivor count [13]: 0 of 6

CC(C)(C)N1CC(C(=O)c2ccccc2)C1c1ccc([N+](=O)[O-])cc1 (centres undefined)
survivor count [13]: 0 of 6

C[N+](C)(C)CCOC(=O)c1cc(CBr)cc(CBr)c1
survivor count (dose: 100.0 mg/kg/injection, schedule: Q01DX009 (ip), vehicle: saline): 6 of 6

CCCCc1cn(C(C)=O)nn1
survivor count [14]: 1 of 3

CCCCCCCC/C=C\CCCCCCCCNP(=O)(OCCCCCCCCCCCC)OCCCCCCCCCCCC
T/C [15]: 130 % of control

CCC[CH2][Sn]([CH2]CCC)([S]C#N)[S]C#N
survivor count (dose: 12.5 mg/kg/injection, schedule: Q04DX002 (ip), vehicle: gum acacia): 3 of 3 | survivor count (dose: 25.0 mg/kg/injection, schedule: Q04DX002 (ip), vehicle: gum acacia): 3 of 3 | survivor count (dose: 50.0 mg/kg/injection, schedule: Q04DX002 (ip), vehicle: gum acacia): 1 of 3 | survivor count (dose: 100.0 mg/kg/injection, schedule: Q04DX002 (ip), vehicle: gum acacia): 0 of 3 | survivor count (dose: 200.0 mg/kg/injection, schedule: Q04DX002 (ip), vehicle: gum acacia): 0 of 3 | survivor count (dose: 400.0 mg/kg/injection, schedule: Q04DX002 (ip), vehicle: gum acacia): 0 of 3

Nc1nc(CBr)c(CCCCc2ccccc2)c(=O)[nH]1
survivor count (dose: 150.0 mg/kg/injection, schedule: Q01DX001 (ip), vehicle: saline with Tween-80): 1 of 6

NCCSCCc1ccccc1
T/C [16]: 130 % of control | survivor count [16]: 3 of 3 | survivor count [15]: 0 of 3 | survivor count [14]: 0 of 3

O=S(=O)(CCCl)Cc1ccc(Cl)cc1
survivor count [8]: 3 of 3

CN(C)CCO/C(CN(C)C)=C(\C#N)c1ccccc1
survivor count (dose: 60.0 mg/kg/injection, schedule: Q01DX001 (ip), vehicle: carboxymethylcellulose (CMC)): 0 of 6 | survivor count (dose: 75.0 mg/kg/injection, schedule: Q01DX001 (ip), vehicle: carboxymethylcellulose (CMC)): 3 of 6 | survivor count (dose: 150.0 mg/kg/injection, schedule: Q01DX001 (ip), vehicle: carboxymethylcellulose (CMC)): 1 of 6 | survivor count (dose: 300.0 mg/kg/injection, schedule: Q01DX001 (ip), vehicle: carboxymethylcellulose (CMC)): 0 of 6

N#CC1(Nc2ccc(-c3ccc(NC4(C#N)CCCC4)cc3)cc2)CCCC1
survivor count [3]: 4 of 4

O=c1ccn(-c2ccccc2)c(=S)[nH]1
survivor count [9]: 2 of 6

Nc1ccnc2snnc12
survivor count [17]: 3 of 6

CCCCCCCCC(=O)N1CCOCC1
survivor count (dose: 75.0 mg/kg/injection, schedule: Q01DX009 (ip), vehicle: saline): 0 of 6 | survivor count [7]: 0 of 6 and 2 of 6 | survivor count [11]: 3 of 6 | survivor count (dose: 150.0 mg/kg/injection, schedule: Q01DX009 (ip), vehicle: saline): 0 of 6 | survivor count [1]: 0 of 6 | survivor count [2]: 0 of 6

CCC[n+]1c(C)oc2ccc(-c3ccccc3)cc21
survivor count (dose: 200.0 mg/kg/injection, schedule: Q01DX009 (ip), vehicle: saline with Tween-80): 6 of 6

CC1=NC(C)=C(C)C1(C)C
survivor count [16]: 0 of 3 | survivor count [15]: 1 of 3 | survivor count [14]: 1 of 3

COC(=O)N(CCCCN(N=O)C(=O)OC)N=O
survivor count [8]: 3 of 3

CCN(CC)c1cccc(O)c1
survivor count (dose: 400.0 mg/kg/injection, schedule: Q04DX003 (ip), vehicle: saline with Tween-80): 3 of 6

CCCCn1cnc2c(=O)n(C)c(=O)n(C)c21
survivor count [18]: 3 of 6

CCNC(=O)Oc1ccc(S(=O)(=O)F)cc1Cl
survivor count [3]: 0 of 6 | survivor count [4]: 0 of 6

CCOC(=O)NCC(CCN(C)C)(c1cccc2ccccc12)C(C)C (centres undefined)
survivor count [5]: 1 of 6 | survivor count [13]: 2 of 6

CC12CCC3c4ccc([O-])c([N+]#N)c4CCC3C1CCC2=O (centres undefined)
survivor count [7]: 1 of 3

O=C(O)CCSc1nc2ccccc2s1
survivor count [11]: 6 of 6 | survivor count [12]: 6 of 6

CCCCCCCCCCCCCCCCNC(=S)NC1CCCCC1
survivor count [9]: 3 of 6

CCCCCCCCCCCCNC(C)=O
survivor count [2]: 2 of 3

CNNCc1ccccc1
survivor count [18]: 2 of 4

Nc1cccc(CCCCOc2ccccc2)c1
survivor count [9]: 1 of 6

CCOC(=O)COc1cc(Cl)c(Cl)cc1Cl
survivor count (dose: 150.0 mg/kg/injection, schedule: Q01DX009 (ip), vehicle: gum acacia): 3 of 3 | survivor count (dose: 300.0 mg/kg/injection, schedule: Q01DX009 (ip), vehicle: gum acacia): 0 of 3

CCOC(=O)Nc1cc2c(c(NC(=O)OCC)n1)N=C(CN(C)c1ccccc1)CN2
survivor count [10]: 6 of 6 | T/C (dose: 200.0 mg/kg/injection, schedule: Q01DX001 (ip), vehicle: saline with Tween-80): 133 % of control | T/C (dose: 300.0 mg/kg/injection, schedule: Q01DX001 (ip), vehicle: saline with Tween-80): 146 % of control | survivor count [17]: 3 of 6
